Assay: Fungicide residue in fruit, oranges of Navel variety inoculated with P. digitatum
Details: example 10

**Q.** With imazalil sulfate [IMZ REF] as the substance, how does the “IMZ residue in fruit” value (oranges Navel, P. digitatum, after 7 days at 22° C. and 85% RH) read?
**A.** 1.10 mg/kg

**Q.** What about the “Reduction of residues in fruit” value (versus reference treatment IMZ REF) of the same substance?
**A.** 0.0%

— patent publication US10736316B2, “Silica particles functionalized and loaded with fungicidal agents, their manufacture and their use as systems of targeted and controlled release of fungicides” (priority 2015, dated 2020)
